In patent publication US20200172626A1:
Results are given in words; binding and its absence hold for the method and conditions named. Some results given as binding are weak or reduced against the parent protein; the word gives no strength.

By UniProt entry, the sequences of proteins in these tests, tags left out. Where a name states a change or a piece, a line headed by the entry shows the natural chain unless it says otherwise.
UniProt Q07011: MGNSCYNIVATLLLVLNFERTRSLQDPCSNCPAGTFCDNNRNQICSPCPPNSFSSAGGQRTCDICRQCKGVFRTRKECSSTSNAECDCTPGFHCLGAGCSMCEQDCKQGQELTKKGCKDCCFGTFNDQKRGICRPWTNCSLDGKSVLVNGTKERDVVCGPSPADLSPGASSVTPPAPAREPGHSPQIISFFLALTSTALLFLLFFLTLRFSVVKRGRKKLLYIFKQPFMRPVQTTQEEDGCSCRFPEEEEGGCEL

What was measured:
[1] = target: histidine-tagged 4-1BB extracellular domain recombinant protein (H4-1BB) (human) (UniProt Q07011); assay: ELISA on plates coated with histidine-tagged 4-1BB ECD
[2] = target: histidine-tagged 4-1BB extracellular domain recombinant protein (H4-1BB) (human) (UniProt Q07011); assay: ELISA on plates coated with histidine-tagged recombinant 4-1BB extracellular domain, HRP-labelled anti-human IgG; y axis printed as Absorbance (410nm)
[3] = target: human 4-1BB antigen (H4-1BB) (human) (UniProt Q07011); assay: SPR (Biacore 3000, CM5), antibody captured on anti-human IgG, H4-1BB antigen in flow; the numbers stand only in FIG. 5

Measured: binding

B1: 94G1 reference humanized anti-human 4-1BB antibody (antibody, V domains shown)
VH: QVQLQQSGAEVKKPGASVKLSCKASGYTFSSYWMHWVRQAPGQGLEWIGEINPGNGHTNYNEKFKSRATMTRDTSTSTAYMELSSLRSEDSAVYYCARSFTTARAFAYWGQGTLVTVSS
VL: DIVMTQSPAFLSVTPGEKVTITCRASQTISDYLHWYQQKPDQAPKLLIKYASQSISGIPSRFSGSGSGTDFTFTISSLEAEDAATYYCQDGHSFPPTFGQGTKLEIK
binds: all assays above
